This is one part of the list. These are further read-outs of the screen, such as a control signal, another cell line or another target. No call is given for them. The list favours compounds with an active or inconclusive main result. Words in brackets tell the shape of the fitted curve; partial curves, single points and poor fits give uncertain potencies.
Assay: qHTS Assay to Find Inhibitors of Chronic Active B-Cell Receptor Signaling
Settings: ABC-DLBCL IkBa-CBG/CBR reporter, luminescence ratio (green luciferase fused to IkBa over red control in TMD8 lymphoma cells), 4 h
How it was run: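 TMD8 ABC-DLBCL cells carrying doxycycline-inducible green luciferase fused to IkappaBalpha plus unfused red luciferase were exposed to compounds (up to 46 uM) for 4 hrs at 37C. Activity came from the overlap-corrected green/red luminescence ratio.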

[1] = measured here: CBR red luminescence, cell number
[2] = measured here: IkBa-CBG green luminescence

Compound: CCOC(=O)c1c(NC(=O)CNCCOC)sc2c1CCCC2
- AC50 [1]: 6.51 µM [rising, single point]

Compound: NC(=O)c1ccccc1NC(=O)NC1CCCCC1
- AC50 [1]: 29.1 µM [falling, single point]

Compound: CCOC(=O)C1CCN(C(=O)c2cc3cc4cc(OC)ccc4nc3o2)CC1
- AC50 [1]: 0.731 µM [falling, full curve]

Compound: COc1ccc(NC(=O)C2(c3cccs3)CCOCC2)cc1Cl
- AC50 [1]: 35.5 µM [rising, single point]

Compound: COc1ccc(N2CCOCC2)c(NC(=O)c2cc3ccccc3o2)c1
- AC50 [1]: 3.55 µM [falling, partial curve, poor fit]

Compound: COc1ccc(S(=O)(=O)NC(CC(=O)NCCc2ccccc2)c2ccco2)cc1 (configuration not stated)
- AC50 [1]: 29.1 µM [falling, single point]

Compound: CNc1ccc(/C=C(\CCC(=O)O)c2nc3ccccc3s2)cc1[N+](=O)[O-]
- AC50 [1]: 20.6 µM [rising, single point]
- AC50 [2]: 20.6 µM [falling, partial curve, poor fit]

Compound: COc1ccc(CC(=O)Nc2nnc(SCc3ccccc3)s2)cc1S(=O)(=O)N1CCOCC1
- AC50 [1]: 3.26 µM [rising, partial curve, poor fit]

Compound: Fc1ccccc1N1CCN(CCCc2ccccc2)CC1
- AC50 [1]: 7.08 µM [rising, partial curve, poor fit]

Compound: COc1cccc(NC(=O)CN(C2=NC3CS(=O)(=O)CC3S2)c2cccc(C)c2)c1 (configuration not stated)
- AC50 [1]: 12.6 µM [falling, single point]

Compound: COc1ccc(C2NC(c3ccc(OC)cc3)C(C)C(=O)C2C)cc1 (configuration not stated)
- AC50 [1]: 0.112 µM [falling, full curve, poor fit]

Compound: O=C1OCCC1Sc1nc2ccccc2c(=O)n1-c1ccc(F)cc1 (configuration not stated)
- AC50 [1]: 0.282 µM [rising, full curve, poor fit]

Compound: CC(=O)NC(c1cccs1)c1cc(F)c2cccnc2c1O (configuration not stated)
- AC50 [1]: 32.6 µM [falling, single point]

Compound: CCN(CC(=O)Nc1ccc(NC(C)=O)cc1)C(=O)Cc1cccc2ccccc12
- AC50 [1]: 7.94 µM [falling, partial curve, poor fit]

Compound: CCN(C[C@H]1N[C@@](CC)(C(=O)OC)[C@H]2C(=O)N(C)C(=O)[C@@H]12)S(=O)(=O)c1ccc(OC)cc1
- AC50 [1]: 0.366 µM [rising, full curve, poor fit]

Compound: Cc1nc2ccccc2c(=O)n1-c1ccc(NS(=O)(=O)c2ccccc2)cc1
- AC50 [1]: 7.31 µM [falling, partial curve, poor fit]

Compound: COc1ccc(C(CC(=O)NCCCN2CCOCC2)NS(=O)(=O)c2ccc(C)cc2)cc1 (configuration not stated)
- AC50 [1]: 12.6 µM [rising, single point]

Compound: Nc1c(-c2ccccc2)c(CSc2nc3ccccc3[nH]2)nn1-c1ccc(C(=O)O)cc1
- AC50 [1]: 16.4 µM [falling, partial curve, poor fit]

Compound: CCc1ccc(/C=C2/SC(=S)N(CCC(=O)Nc3cccc(C(=O)O)c3)C2=O)cc1
- AC50 [1]: 12.6 µM [falling, partial curve]

Compound: CN(Cc1cccnc1)Cc1cn(C)nc1-c1ccc(Oc2ccccc2)cc1
- AC50 [1]: 20 µM [rising, partial curve, poor fit]

Compound: COc1ccc2ccc(OC)c(/C=N/n3cnnc3)c2c1
- AC50 [1]: 0.631 µM [rising, full curve, poor fit]

Compound: CC1(C)CC(=O)c2sc(NC(=O)c3ccc4ncsc4c3)nc2C1
- AC50 [1]: 8.2 µM [falling, partial curve]

Compound: c1ccc(COc2ccc(CN3CCN(c4ccccn4)CC3)cc2)cc1
- AC50 [1]: 6.51 µM [rising, single point]

Compound: O=C(CCCOc1ccccc1)NN1C(=O)NC2(CCCCC2)C1=O
- AC50 [1]: 1.3 µM [rising, partial curve, poor fit]

Compound: COc1ccc(OCc2nnc(SCC(=O)Nc3ccccc3F)o2)cc1
- AC50 [1]: 12.6 µM [falling, partial curve, poor fit]

Compound: CN(Cc1cnn(C)c1)Cc1nc(COc2ccccc2)no1
- AC50 [1]: 11.2 µM [rising, partial curve, poor fit]

Compound: Cn1c(SCC(=O)Nc2ccccc2)nc2ccccc2c1=O
- AC50 [1]: 7.94 µM [falling, partial curve]

Compound: CC1=CC(C)(C)N2C(=O)C(=Nc3ccc(O)cc3)c3cccc1c32
- AC50 [2]: 35.5 µM [falling, partial curve, poor fit]

Compound: O=C(Nc1nc2c(Cl)ccc(Cl)c2s1)C1CC1
- AC50 [1]: 0.562 µM [falling, full curve]
- AC50 [2]: 2.82 µM [rising, full curve, poor fit]

Compound: O=C(OCC(=O)C12CC3CC(CC(C3)C1)C2)c1ccc(CO)cc1
- AC50 [1]: 0.461 µM [rising, full curve, poor fit]

Compound: NC(=S)N/N=C1\CCSc2ccc(Cl)cc21
- AC50 [1]: 10 µM [falling, partial curve, poor fit]

Compound: O=C(Nc1cccc(F)c1)C1CCN(C(=O)c2ccccc2Cl)CC1
- AC50 [1]: 29.1 µM [rising, single point]

Compound: O=C(NC1CCC(O)CC1)c1cccc2cccnc12 (configuration not stated)
- AC50 [1]: 10 µM [rising, partial curve]

Compound: CCN1C(=O)C(C(=O)Nc2ccc(OC)cc2)C2CC1(C)Oc1ccccc12 (configuration not stated)
- AC50 [1]: 3.66 µM [rising, single point]

Compound: CC(/C=C1\SC(=S)N(c2ccc(C(=O)O)cc2)C1=O)=C\c1ccccc1
- AC50 [1]: 14.1 µM [falling, partial curve, poor fit]

Compound: Cc1ccc(C)c(N=Nc2nc3ccccc3n2C)c1
- AC50 [1]: 11.2 µM [falling, single point]

Compound: C=CCn1c(SCC(=O)O)nnc1-c1cccs1
- AC50 [1]: 0.092 µM [falling, full curve, poor fit]

Compound: COc1ccccc1NC(=O)COc1ccc(Br)cc1CO
- AC50 [1]: 4.11 µM [falling, single point]

Compound: CCCCn1nc(C(=O)Nc2ccc3c(c2)OCCO3)c2ccccc2c1=O
- AC50 [1]: 11.6 µM [falling, partial curve]

Compound: NCCNC(=O)c1c(NC(=O)c2ccccc2)sc2c1CCCC2
- AC50 [1]: 2.51 µM [falling, full curve, poor fit]

Compound: O=C(N/N=C/c1cccc(F)c1)c1ccc(Cl)cc1
- AC50 [1]: 11.2 µM [falling, partial curve, poor fit]

Compound: O=C(NCc1ccco1)NC1CCCCC1
- AC50 [1]: 25.9 µM [rising, single point]

Compound: Cc1nn(-c2ccccc2)c(Cl)c1/C=N/Nc1nnc(C)c(=O)[nH]1
- AC50 [1]: 3.55 µM [rising, single point]

Compound: Fc1ccccc1OCCCCSc1ncccn1
- AC50 [1]: 0.398 µM [rising, full curve, poor fit]

Compound: O=C1CCCC2=C1C(c1cccs1)n1ncnc1N2 (configuration not stated)
- AC50 [1]: 9.2 µM [rising, partial curve, poor fit]

Compound: CCOC(=O)c1cnc2ccccc2c1Nc1ccc2c(c1)OCCO2
- AC50 [1]: 23.1 µM [falling, partial curve, poor fit]

Compound: CN(C)C(=S)Nc1ccc2c(c1)OCCO2
- AC50 [1]: 0.562 µM [rising, full curve, poor fit]

Compound: OCCNCCOCCOc1ccccc1-c1ccccc1
- AC50 [1]: 16.4 µM [falling, partial curve]

Compound: O=C(Nc1cccc(NC(=O)c2cccnc2Cl)c1)c1ccco1
- AC50 [1]: 5.8 µM [falling, full curve]

Compound: COC(=O)c1cccc(CSc2nnc(C)s2)c1
- AC50 [1]: 10 µM [rising, partial curve, poor fit]

Compound: COc1ccccc1C(=O)Nc1ccc(OCC(=O)N2CC(C)OC(C)C2)cc1 (configuration not stated)
- AC50 [2]: 16.4 µM [rising, partial curve, poor fit]

Compound: C=CCn1c(O)c(N=NC(=S)Nc2ccccc2F)c2ccccc21
- AC50 [1]: 3.55 µM [rising, partial curve]
- AC50 [2]: 4.47 µM [falling, single point]

Compound: CC(C)(C)OC(=O)NCCCC[C@H](NC(=O)c1nc[nH]c1C(=O)NC1CCN(C(=O)OC(C)(C)C)CC1)C(=O)OC(C)(C)C
- AC50 [1]: 35.5 µM [falling, partial curve, poor fit]

Compound: COc1ccc(C(=O)OCC(=O)Nc2cc(C)on2)c(OC)c1OC
- AC50 [1]: 14.1 µM [rising, partial curve, poor fit]

Compound: O=C(Nc1cccc(F)c1)c1ccc2c(c1)OCO2
- AC50 [1]: 5.17 µM [falling, single point]
- AC50 [2]: 2.91 µM [rising, partial curve, poor fit]

Compound: Cc1cc(NC(=O)c2ccc(S(=O)(=O)N3CCc4ccccc43)cc2)no1
- AC50 [1]: 6.31 µM [falling, full curve]

Compound: O=C(NCCN1CCCCC1)Nc1ccc(Br)cc1
- AC50 [1]: 12.6 µM [rising, partial curve, poor fit]

Compound: Cc1nc(N2CCN(C)CC2)c2sc(=S)n(C)c2n1
- AC50 [1]: 2.91 µM [falling, single point]

Compound: C#CCOCCOCCOCCNc1nc(N2CCN(C(=O)CCCCCCCCCCNC(=O)Cn3cc(C[C@@H](C)O)nn3)CC2)nc(N2CCN(C(=O)CCCCCCCCCCNC(=O)[C@H](CCCCN)n3cc(CCCC(=O)O)nn3)CC2)n1
- AC50 [1]: 14.6 µM [rising, partial curve]

Compound: Cn1c(=NC(=O)CCS(=O)(=O)c2ccccc2)sc2cc(F)ccc21
- AC50 [1]: 3.66 µM [rising, full curve, poor fit]

Compound: COc1cccc(C(=O)NNC2OC(CO)C(O)C2O)c1 (configuration not stated)
- AC50 [1]: 1.41 µM [falling, full curve]

Compound: Cc1cccc(-c2n[nH]c([N+](=O)[O-])n2)c1
- AC50 [1]: 6.31 µM [falling, partial curve]

Compound: COC(=O)Cn1cc(C(=O)C2CC2)c2ccccc21
- AC50 [1]: 0.146 µM [rising, full curve, poor fit]
